Data as given in patent US20030138374A1, “Image diagnosis probe based on substituted azobenzene or analogue thereof for disease attributable to amyloid accumulation and composition for image diagnosis containing the same” (priority 2000, published 2003).
At least one structure is not confirmed: it was looked up by name or label, or the drawing left a doubt.

Assay: Distribution coefficient between water/1-octanol
Assay type: physicochemical
Settings: 1-octanol / phosphate buffer (pH 7.3) or ultra-pure water
Method: As an oily phase, 1-octanol was used and, as an aqueous phase, a phosphate buffer (pH 7.3) or ultra-pure water was used. A suitable amount of a test compound was dissolved in an oily phase or an aqueous phase, and both phases were placed in the same test tube, and shaken vigorously at room temperature for 30 minutes. After allowing to stand at room temperature over 1 hour, centrifugation at 2000 rpm for 10 minutes was carried out, followed by further standing at room temperature for 1 hour. The aqueous phase and the oily phase were sampled, respectively, and transferred to a 96-well microplate. By using a microplate reader (manufactured by Molecular Device, Model Spectramax 250), the absorbance was measured at a maximum absorbing wavelength for each test compound, and the concentration of the test compound was calculated from a calibration curve previously obtained. A distribution coefficient was calculated by the following formula. Distribution coefficient for test compound =(concentration of test compound in oily phase)/(concentration of test compound in aqueous phase) As the distribution coefficient becomes larger, it can be said that the blood-brain barrier permeability for the test compound is higher.

Nc1c(/N=N/c2ccc(-c3ccc(/N=N/c4cc(S(=O)(=O)O)c5ccccc5c4N)cc3)cc2)cc(S(=O)(=O)O)c2ccccc12 [Congo red, reference compound]
Distribution coefficient: 0.74
